# From the supplement of paper PMC8728848
# The other results are listed elsewhere or left out.
# B1: B936 (Bifidobacterium sp) (protein)
# chain: MKNWKKAIALVASAAALVSVAACGPSNAGGSSDSGKKTVGFVAVGPEGGFRTANEKDIQKAFEDAGFDLTYSPTQNNDQQKQIQAFNKFVNDEVDAIILSSTEDSGWDDSLKKAAEAEIPVFTVDRNVDVKDAEAKKAIVAHIGPSNVWCGEQAAEFVNKNFPDGANGFILEGPAGLSVVKDRGTGWGNKVASNVKVLESQSANWSTDEAKTVTAGLLDKYKSDNPQFIFAQNDEMGLGAAQAVDAAGLKGKVKIITIDGTKNALQALVDGDLSYVIEYNPIFGKETAQAVKDYLDGKTVEKDIEIESKTFDAASAKEALDNNTRAY
# Key:
# Experiment in all cases: glycan array binding signal (z-score within array); higher = stronger binding
# Conditions in all cases: glycan notation: IUPAC condensed, linker removed
# [1] = biological target: Gal(b1-3)GlcNAc(b1-2)Man(a1-3)[Gal(b1-3)GlcNAc(b1-2)Man(a1-6)]Man(b1-4)GlcNAc(b1-4)[Fuc(a1-6)]GlcNAc
# Outline: (§1)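 Glycan array data came from 3228 arrays in the Consortium for Functional Glycomics database, and only arrays with an available protein sequence were kept. Glycan names were put into IUPAC-condensed notation, and columns mapping to the same glycan were averaged. The binding signal is a within-array Z-score, averaged across arrays of one protein sequence run at different concentrations or buffers and across linkers. A negative Z-score can be read as non-binding.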
# [2] = biological target: Gal(b1-3)GlcNAc(b1-2)Man(a1-3)[GlcNAc(b1-4)][Gal(b1-3)GlcNAc(b1-2)Man(a1-6)]Man(b1-4)GlcNAc(b1-4)GlcNAc
# Outline: as §1
# [3] = biological target: Gal(b1-3)GlcNAc(b1-2)[Gal(b1-3)GlcNAc(b1-6)]Man(a1-6)[Gal(b1-3)GlcNAc(b1-2)Man(a1-3)]Man(b1-4)GlcNAc(b1-4)GlcNAc
# Outline: as §1
# [4] = biological target: Gal(b1-3)GlcNAc(b1-3)Gal(b1-3)GlcNAc
# Outline: as §1
# [5] = biological target: Gal(b1-3)GlcNAc(b1-3)Gal(b1-4)Glc
# Outline: as §1
# [6] = biological target: Gal(b1-3)GlcNAc(b1-3)Gal(b1-4)GlcNAc
# Outline: as §1
# [7] = biological target: Gal(b1-3)GlcNAc(b1-3)Gal(b1-4)GlcNAc(b1-2)Man(a1-3)[Gal(b1-3)GlcNAc(b1-3)Gal(b1-4)GlcNAc(b1-2)Man(a1-6)]Man(b1-4)GlcNAc(b1-4)GlcNAc
# Outline: as §1
# [8] = biological target: Gal(b1-3)GlcNAc(b1-3)Gal(b1-4)GlcNAc(b1-2)[Gal(b1-3)GlcNAc(b1-3)Gal(b1-4)GlcNAc(b1-6)]Man(a1-6)[Gal(b1-3)GlcNAc(b1-3)Gal(b1-4)GlcNAc(b1-2)Man(a1-3)]Man(b1-4)GlcNAc(b1-4)[Fuc(a1-6)]GlcNAc
# Outline: as §1
# [9] = biological target: Gal(b1-3)GlcNAc(b1-3)Gal(b1-4)GlcNAc(b1-3)Gal(b1-4)GlcNAc(b1-2)[Gal(b1-3)GlcNAc(b1-3)Gal(b1-4)GlcNAc(b1-3)Gal(b1-4)GlcNAc(b1-6)]Man(a1-6)[Gal(b1-3)GlcNAc(b1-3)Gal(b1-4)GlcNAc(b1-3)Gal(b1-4)GlcNAc(b1-2)Man(a1-3)]Man(b1-4)GlcNAc(b1-4)[Fuc(a1-6)]GlcNAc
# Outline: as §1
# [10] = biological target: Gal(b1-3)GlcNAc(b1-3)Gal(b1-4)GlcNAc(b1-6)[Gal(b1-3)GlcNAc(b1-3)]Gal(b1-4)Glc
# Outline: as §1
# [11] = biological target: Gal(b1-3)GlcNAc(b1-3)Gal(b1-4)[Fuc(a1-3)]GlcNAc
# Outline: as §1
# [12] = biological target: Gal(b1-3)GlcNAc(b1-3)Gal(b1-4)[Fuc(a1-3)]GlcNAc(b1-6)[Gal(b1-3)GlcNAc(b1-3)]Gal(b1-4)Glc
# Outline: as §1
# [13] = biological target: Gal(b1-3)GlcNAc(b1-3)GalNAc
# Outline: as §1
# [14] = biological target: Gal(b1-3)GlcNAc(b1-6)Gal(b1-4)GlcNAc
# Outline: as §1
# [15] = biological target: Gal(b1-3)GlcNAc(b1-6)GalNAc
# Outline: as §1
# [16] = biological target: Gal(b1-3)GlcNAc(b1-6)[Gal(b1-3)]GalNAc
# Outline: as §1
# [17] = biological target: Gal(b1-3)GlcNAc6S
# Outline: as §1
# [18] = biological target: Gal(b1-3)[Fuc(a1-4)]GlcNAc
# Outline: as §1
# [19] = biological target: Gal(b1-3)[Fuc(a1-4)]GlcNAc(b1-2)Man
# Outline: as §1
# [20] = biological target: Gal(b1-3)[Fuc(a1-4)]GlcNAc(b1-2)Man(a1-3)[Gal(b1-3)[Fuc(a1-4)]GlcNAc(b1-2)Man(a1-6)]Man(b1-4)GlcNAc(b1-4)[Fuc(a1-6)]GlcNAc
# Outline: as §1
# [21] = biological target: Gal(b1-3)[Fuc(a1-4)]GlcNAc(b1-3)Gal(b1-3)[Fuc(a1-4)]GlcNAc
# Outline: as §1
# [22] = biological target: Gal(b1-3)[Fuc(a1-4)]GlcNAc(b1-3)Gal(b1-4)[Fuc(a1-3)]GlcNAc
# Outline: as §1
# [23] = biological target: Gal(b1-3)[Fuc(a1-4)]GlcNAc(b1-6)GalNAc
# Outline: as §1
# [24] = biological target: Gal(b1-3)[GlcNAc(b1-6)]GalNAc
# Outline: as §1
# [25] = biological target: Gal(b1-3)[Neu5Ac(a2-6)]GalNAc
# Outline: as §1
# [26] = biological target: Gal(b1-3)[Neu5Ac(a2-6)]GlcNAc(b1-4)Gal(b1-4)Glc
# Outline: as §1
# [27] = biological target: Gal(b1-3)[Neu5Ac(b2-6)]GalNAc
# Outline: as §1
# [28] = biological target: Gal(b1-4)Gal
# Outline: as §1
# [29] = biological target: Gal(b1-4)GalNAc(a1-3)[Fuc(a1-2)]Gal(b1-4)GlcNAc
# Outline: as §1
# [30] = biological target: Gal(b1-4)GalNAc(b1-3)[Fuc(a1-2)]Gal(b1-4)GlcNAc
# Outline: as §1
# [31] = biological target: Gal(b1-4)Glc
# Outline: as §1
# [32] = biological target: Gal(b1-4)Glc6S
# Outline: as §1
# [33] = biological target: Gal(b1-4)GlcNAc
# Outline: as §1
# [34] = biological target: Gal(b1-4)GlcNAc(a1-6)Gal(b1-4)GlcNAc
# Outline: as §1
# [35] = biological target: Gal(b1-4)GlcNAc(b1-2)Man
# Outline: as §1
# [36] = biological target: Gal(b1-4)GlcNAc(b1-2)Man(a1-3)Man(b1-4)GlcNAc(b1-4)GlcNAc
# Outline: as §1
# [37] = biological target: Gal(b1-4)GlcNAc(b1-2)Man(a1-3)[Gal(b1-4)GlcNAc(b1-2)Man(a1-6)]Man(b1-4)GlcNAc(b1-4)GlcNAc
# Outline: as §1
binder,measurement,setting,value
B1,glycan array binding signal (z-score),[1],0.023
same,glycan array binding signal (z-score),[2],0.045
same,glycan array binding signal (z-score),[3],-0.366
same,glycan array binding signal (z-score),[4],-0.213
same,glycan array binding signal (z-score),[5],1.71
same,glycan array binding signal (z-score),[6],4.33
same,glycan array binding signal (z-score),[7],0.754
same,glycan array binding signal (z-score),[8],0.996
same,glycan array binding signal (z-score),[9],1.02
same,glycan array binding signal (z-score),[10],0.08
same,glycan array binding signal (z-score),[11],-0.132
same,glycan array binding signal (z-score),[12],-0.335
same,glycan array binding signal (z-score),[13],0.078
same,glycan array binding signal (z-score),[14],-0.045
same,glycan array binding signal (z-score),[15],0.725
same,glycan array binding signal (z-score),[16],0.367
same,glycan array binding signal (z-score),[17],0.196
same,glycan array binding signal (z-score),[18],0.47
same,glycan array binding signal (z-score),[19],1.8
same,glycan array binding signal (z-score),[20],1.53
same,glycan array binding signal (z-score),[21],-0.183
same,glycan array binding signal (z-score),[22],0.293
same,glycan array binding signal (z-score),[23],1.04
same,glycan array binding signal (z-score),[24],0.358
same,glycan array binding signal (z-score),[25],-0.264
same,glycan array binding signal (z-score),[26],-0.509
same,glycan array binding signal (z-score),[27],-0.224
same,glycan array binding signal (z-score),[28],-0.536
same,glycan array binding signal (z-score),[29],0.315
same,glycan array binding signal (z-score),[30],-0.302
same,glycan array binding signal (z-score),[31],-0.221
same,glycan array binding signal (z-score),[32],0.168
same,glycan array binding signal (z-score),[33],-0.78
same,glycan array binding signal (z-score),[34],-0.115
same,glycan array binding signal (z-score),[35],0.182
same,glycan array binding signal (z-score),[36],-0.311
same,glycan array binding signal (z-score),[37],-0.135

# Reformatted: entries from further up
binder	measurement	setting	value
B1	glycan array binding signal (z-score)	[15]	0.725
same	glycan array binding signal (z-score)	[16]	0.367
